Experimental data: paper doi:10.1101/2024.01.17.575929

Chains of the proteins cited; added tags and fusions are not shown.
UniProt O14686: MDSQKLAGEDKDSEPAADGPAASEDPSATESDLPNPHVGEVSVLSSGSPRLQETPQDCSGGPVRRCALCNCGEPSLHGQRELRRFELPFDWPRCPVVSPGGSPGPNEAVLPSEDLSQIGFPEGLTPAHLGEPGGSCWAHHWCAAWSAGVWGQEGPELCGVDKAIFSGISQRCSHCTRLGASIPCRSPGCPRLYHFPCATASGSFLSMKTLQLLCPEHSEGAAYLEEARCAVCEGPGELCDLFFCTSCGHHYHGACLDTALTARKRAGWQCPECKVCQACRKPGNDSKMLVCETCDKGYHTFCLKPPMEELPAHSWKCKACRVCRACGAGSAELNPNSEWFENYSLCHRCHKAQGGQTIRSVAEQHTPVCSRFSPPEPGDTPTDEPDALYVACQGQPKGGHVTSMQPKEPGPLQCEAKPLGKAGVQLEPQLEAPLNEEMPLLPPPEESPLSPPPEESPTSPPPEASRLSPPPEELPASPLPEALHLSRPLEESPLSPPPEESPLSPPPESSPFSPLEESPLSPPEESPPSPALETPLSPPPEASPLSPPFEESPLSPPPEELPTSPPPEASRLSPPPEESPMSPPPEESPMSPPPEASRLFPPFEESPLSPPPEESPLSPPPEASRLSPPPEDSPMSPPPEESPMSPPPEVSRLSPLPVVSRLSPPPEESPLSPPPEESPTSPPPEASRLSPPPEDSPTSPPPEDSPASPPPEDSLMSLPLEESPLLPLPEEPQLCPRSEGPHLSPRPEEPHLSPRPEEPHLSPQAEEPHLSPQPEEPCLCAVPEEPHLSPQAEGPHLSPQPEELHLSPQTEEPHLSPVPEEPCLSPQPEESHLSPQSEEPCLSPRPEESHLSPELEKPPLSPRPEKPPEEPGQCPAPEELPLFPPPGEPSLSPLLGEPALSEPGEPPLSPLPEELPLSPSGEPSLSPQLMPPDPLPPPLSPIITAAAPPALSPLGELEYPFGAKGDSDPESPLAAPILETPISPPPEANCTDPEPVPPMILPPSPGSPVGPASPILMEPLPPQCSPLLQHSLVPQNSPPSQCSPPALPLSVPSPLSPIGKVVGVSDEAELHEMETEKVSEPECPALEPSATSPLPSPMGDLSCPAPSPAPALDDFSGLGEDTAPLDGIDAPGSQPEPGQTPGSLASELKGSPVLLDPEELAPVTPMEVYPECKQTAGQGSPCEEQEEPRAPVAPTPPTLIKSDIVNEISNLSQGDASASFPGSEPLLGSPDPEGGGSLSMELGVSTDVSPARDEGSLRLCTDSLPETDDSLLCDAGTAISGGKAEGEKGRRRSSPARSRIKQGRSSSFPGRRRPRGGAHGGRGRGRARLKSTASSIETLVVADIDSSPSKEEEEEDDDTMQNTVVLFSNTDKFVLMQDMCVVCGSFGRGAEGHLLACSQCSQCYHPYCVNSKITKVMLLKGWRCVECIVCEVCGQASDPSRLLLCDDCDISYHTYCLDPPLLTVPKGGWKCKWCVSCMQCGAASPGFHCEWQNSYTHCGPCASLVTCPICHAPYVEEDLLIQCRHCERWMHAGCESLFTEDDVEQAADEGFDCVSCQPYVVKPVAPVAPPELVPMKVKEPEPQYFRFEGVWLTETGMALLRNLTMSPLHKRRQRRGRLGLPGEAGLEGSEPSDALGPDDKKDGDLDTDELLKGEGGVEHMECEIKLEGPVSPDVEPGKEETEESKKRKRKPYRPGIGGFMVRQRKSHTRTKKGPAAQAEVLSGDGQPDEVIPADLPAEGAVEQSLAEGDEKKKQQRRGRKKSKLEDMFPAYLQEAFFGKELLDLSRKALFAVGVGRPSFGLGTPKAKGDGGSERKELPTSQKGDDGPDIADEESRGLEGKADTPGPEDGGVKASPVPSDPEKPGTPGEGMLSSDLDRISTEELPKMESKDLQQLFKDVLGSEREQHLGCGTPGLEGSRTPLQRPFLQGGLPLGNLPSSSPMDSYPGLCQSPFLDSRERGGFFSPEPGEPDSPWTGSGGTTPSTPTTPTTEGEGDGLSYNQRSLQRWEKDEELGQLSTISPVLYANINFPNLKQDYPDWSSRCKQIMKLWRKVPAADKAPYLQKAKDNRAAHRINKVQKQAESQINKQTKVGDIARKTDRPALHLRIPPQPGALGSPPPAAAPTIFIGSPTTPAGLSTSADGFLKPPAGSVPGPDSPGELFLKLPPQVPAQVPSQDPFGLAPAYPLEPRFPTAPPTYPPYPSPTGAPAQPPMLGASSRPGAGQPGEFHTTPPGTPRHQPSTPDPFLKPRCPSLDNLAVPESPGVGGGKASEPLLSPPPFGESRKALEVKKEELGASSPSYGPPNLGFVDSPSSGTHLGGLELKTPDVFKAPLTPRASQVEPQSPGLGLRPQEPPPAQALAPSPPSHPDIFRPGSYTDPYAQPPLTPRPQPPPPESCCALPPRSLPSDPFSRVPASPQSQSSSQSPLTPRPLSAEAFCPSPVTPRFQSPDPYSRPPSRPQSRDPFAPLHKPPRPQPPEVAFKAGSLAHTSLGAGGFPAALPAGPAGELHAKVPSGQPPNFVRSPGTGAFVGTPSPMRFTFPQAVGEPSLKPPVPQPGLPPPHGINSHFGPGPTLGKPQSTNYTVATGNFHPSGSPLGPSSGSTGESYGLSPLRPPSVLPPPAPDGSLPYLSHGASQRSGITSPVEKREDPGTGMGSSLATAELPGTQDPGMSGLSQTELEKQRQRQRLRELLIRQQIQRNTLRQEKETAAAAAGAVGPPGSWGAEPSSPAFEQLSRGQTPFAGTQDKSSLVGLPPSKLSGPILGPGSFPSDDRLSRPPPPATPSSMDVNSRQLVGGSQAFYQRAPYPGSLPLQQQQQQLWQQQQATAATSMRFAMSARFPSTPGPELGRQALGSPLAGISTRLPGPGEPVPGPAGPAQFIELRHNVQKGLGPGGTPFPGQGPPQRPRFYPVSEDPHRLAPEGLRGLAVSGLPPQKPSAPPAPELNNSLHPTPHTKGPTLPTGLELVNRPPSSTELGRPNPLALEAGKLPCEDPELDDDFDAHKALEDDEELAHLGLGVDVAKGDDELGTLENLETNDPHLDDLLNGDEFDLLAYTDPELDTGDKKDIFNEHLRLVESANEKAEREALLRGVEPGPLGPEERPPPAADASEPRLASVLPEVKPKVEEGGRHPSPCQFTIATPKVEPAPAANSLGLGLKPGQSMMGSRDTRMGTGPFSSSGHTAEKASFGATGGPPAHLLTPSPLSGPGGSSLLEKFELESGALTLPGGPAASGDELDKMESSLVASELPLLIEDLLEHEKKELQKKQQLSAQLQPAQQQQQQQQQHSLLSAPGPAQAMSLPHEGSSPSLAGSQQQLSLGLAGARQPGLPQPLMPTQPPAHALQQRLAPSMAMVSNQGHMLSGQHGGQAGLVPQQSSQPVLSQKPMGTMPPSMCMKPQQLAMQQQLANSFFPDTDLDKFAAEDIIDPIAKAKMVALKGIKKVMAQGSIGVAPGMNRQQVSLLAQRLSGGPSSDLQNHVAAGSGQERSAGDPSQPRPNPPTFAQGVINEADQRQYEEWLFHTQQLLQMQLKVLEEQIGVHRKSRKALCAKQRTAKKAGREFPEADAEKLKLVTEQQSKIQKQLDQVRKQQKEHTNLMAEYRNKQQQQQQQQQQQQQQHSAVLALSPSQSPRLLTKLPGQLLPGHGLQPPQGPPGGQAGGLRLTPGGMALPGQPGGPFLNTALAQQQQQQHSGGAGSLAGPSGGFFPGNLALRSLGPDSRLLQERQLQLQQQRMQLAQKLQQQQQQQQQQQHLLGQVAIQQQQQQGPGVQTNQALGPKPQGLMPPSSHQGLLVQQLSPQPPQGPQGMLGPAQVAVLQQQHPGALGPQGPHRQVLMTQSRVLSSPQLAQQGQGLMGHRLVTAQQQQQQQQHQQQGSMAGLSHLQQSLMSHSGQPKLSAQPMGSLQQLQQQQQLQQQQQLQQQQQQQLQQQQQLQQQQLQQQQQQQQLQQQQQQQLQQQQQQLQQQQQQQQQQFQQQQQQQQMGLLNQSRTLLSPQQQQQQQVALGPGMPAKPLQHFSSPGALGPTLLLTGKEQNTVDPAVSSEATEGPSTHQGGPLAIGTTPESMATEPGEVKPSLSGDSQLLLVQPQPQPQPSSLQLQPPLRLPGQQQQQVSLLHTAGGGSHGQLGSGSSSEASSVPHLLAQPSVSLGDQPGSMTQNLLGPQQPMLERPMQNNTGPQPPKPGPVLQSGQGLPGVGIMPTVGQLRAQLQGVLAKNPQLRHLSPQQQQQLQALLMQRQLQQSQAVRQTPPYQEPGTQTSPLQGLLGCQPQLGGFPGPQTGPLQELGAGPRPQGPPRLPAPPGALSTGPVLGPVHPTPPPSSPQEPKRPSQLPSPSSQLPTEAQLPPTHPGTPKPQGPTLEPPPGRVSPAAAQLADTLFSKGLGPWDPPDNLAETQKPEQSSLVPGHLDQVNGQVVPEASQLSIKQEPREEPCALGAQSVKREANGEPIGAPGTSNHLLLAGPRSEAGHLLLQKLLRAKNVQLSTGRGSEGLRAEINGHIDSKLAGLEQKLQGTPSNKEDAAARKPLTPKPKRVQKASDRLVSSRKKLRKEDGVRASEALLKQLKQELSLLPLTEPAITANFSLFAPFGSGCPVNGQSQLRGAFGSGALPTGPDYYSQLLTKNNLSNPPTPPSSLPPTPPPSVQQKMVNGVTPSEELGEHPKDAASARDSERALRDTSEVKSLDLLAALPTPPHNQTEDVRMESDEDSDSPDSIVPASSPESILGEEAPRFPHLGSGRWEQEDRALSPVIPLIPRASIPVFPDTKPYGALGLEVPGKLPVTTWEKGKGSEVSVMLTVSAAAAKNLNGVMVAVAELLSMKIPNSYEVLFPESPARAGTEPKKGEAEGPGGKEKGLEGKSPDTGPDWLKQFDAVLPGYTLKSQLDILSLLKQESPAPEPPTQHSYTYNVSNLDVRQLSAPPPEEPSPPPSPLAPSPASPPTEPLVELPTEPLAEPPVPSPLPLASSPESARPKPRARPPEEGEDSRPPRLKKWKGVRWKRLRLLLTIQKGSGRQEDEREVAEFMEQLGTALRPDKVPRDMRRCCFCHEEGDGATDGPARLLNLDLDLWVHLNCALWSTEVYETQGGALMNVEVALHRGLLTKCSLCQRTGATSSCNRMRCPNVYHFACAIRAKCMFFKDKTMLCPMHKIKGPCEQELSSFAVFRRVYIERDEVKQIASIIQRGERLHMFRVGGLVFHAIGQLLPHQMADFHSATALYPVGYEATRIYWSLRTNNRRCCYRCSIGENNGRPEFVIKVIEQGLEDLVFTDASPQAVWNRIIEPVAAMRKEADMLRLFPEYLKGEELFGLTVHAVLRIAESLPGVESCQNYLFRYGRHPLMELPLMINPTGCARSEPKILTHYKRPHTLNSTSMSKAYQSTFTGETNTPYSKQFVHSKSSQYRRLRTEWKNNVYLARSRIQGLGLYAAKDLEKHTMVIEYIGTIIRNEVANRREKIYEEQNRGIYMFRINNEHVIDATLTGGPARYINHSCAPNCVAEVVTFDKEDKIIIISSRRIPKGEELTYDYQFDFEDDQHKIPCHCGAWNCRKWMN

Biological target: KMT2D (human (endogenous in HEK293A)) (UniProt O14686)
Experiment: affinity purification with mass spectrometry

binding | Molecule
binds | MSH6 (from UniProt P52701 1-1360)
binds | STAG2 (from UniProt Q8N3U4 1-1231)
binds | O-GlcNAc transferase (protein, UniProt O15294 1-1046) MASSVGNVADSTEPTKRMLSFQGLAELAHREYQAGDFEAAERHCMQLWRQEPDNTGVLLLLSSIHFQCRRLDRSAHFSTLAIKQNPLLAEAYSNLGNVYKERGQLQEAIEHYRHALRLKPDFIDGYINLAAALVAAGDMEGAVQAYVSALQYNPDLYCVRSDLGNLLKALGRLEEAKACYLKAIETQPNFAVAWSNLGCVFNAQGEIWLAIHHFEKAVTLDPNFLDAYINLGNVLKEARIFDRAVAAYLRALSLSPNHAVVHGNLACVYYEQGLIDLAIDTYRRAIELQPHFPDAYCNLANALKEKGSVAEAEDCYNTALRLCPTHADSLNNLANIKREQGNIEEAVRLYRKALEVFPEFAAAHSNLASVLQQQGKLQEALMHYKEAIRISPTFADAYSNMGNTLKEMQDVQGALQCYTRAIQINPAFADAHSNLASIHKDSGNIPEAIASYRTALKLKPDFPDAYCNLAHCLQIVCDWTDYDERMKKLVSIVADQLEKNRLPSVHPHHSMLYPLSHGFRKAIAERHGNLCLDKINVLHKPPYEHPKDLKLSDGRLRVGYVSSDFGNHPTSHLMQSIPGMHNPDKFEVFCYALSPDDGTNFRVKVMAEANHFIDLSQIPCNGKAADRIHQDGIHILVNMNGYTKGARNELFALRPAPIQAMWLGYPGTSGALFMDYIITDQETSPAEVAEQYSEKLAYMPHTFFIGDHANMFPHLKKKAVIDFKSNGHIYDNRIVLNGIDLKAFLDSLPDVKIVKMKCPDGGDNADSSNTALNMPVIPMNTIAEAVIEMINRGQIQITINGFSISNGLATTQINNKAATGEEVPRTIIVTTRSQYGLPEDAIVYCNFNQLYKIDPSTLQMWANILKRVPNSVLWLLRFPAVGEPNIQQYAQNMGLPQNRIIFSPVAPKEEHVRRGQLADVCLDTPLCNGHTTGMDVLWAGTPMVTMPGETLASRVAASQLTCLGCLELIAKNRQEYEDIAVKLGTDLEYLKKVRGKVWKQRISSPLFNTKQYTMELERLYLQMWEHYAAGNKPDHMIKPVEVTESA

Results are given in words; binding and its absence hold for the method and conditions named. Binding seen in cells or lysates may run through a third protein. These calls come from enrichment with a bait or labelling near it, and not all partners need be listed.
